Drawing on PMC9579051, this text covers binding for one molecule.

The chains behind the UniProt entries cited, without tags or fusion partners.
UniProt P09144: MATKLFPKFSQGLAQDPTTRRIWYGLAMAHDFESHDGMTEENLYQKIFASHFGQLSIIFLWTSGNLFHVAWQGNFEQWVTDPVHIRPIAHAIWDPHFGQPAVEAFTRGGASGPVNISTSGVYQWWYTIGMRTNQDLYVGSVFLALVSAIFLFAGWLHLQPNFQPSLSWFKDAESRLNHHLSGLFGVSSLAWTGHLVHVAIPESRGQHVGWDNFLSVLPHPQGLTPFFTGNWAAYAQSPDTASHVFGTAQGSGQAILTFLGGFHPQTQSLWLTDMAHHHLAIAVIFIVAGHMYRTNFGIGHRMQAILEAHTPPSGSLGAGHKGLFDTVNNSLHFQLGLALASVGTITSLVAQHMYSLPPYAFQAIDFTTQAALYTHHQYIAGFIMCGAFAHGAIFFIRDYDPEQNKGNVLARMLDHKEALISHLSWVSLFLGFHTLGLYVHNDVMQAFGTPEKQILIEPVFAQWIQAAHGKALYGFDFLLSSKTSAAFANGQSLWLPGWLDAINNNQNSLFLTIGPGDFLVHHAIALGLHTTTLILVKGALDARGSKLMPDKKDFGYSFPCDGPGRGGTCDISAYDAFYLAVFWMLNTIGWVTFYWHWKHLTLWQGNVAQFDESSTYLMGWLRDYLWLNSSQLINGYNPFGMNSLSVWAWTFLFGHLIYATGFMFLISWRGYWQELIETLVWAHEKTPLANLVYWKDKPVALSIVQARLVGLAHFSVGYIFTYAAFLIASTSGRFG

These are yes or no findings as the source states them, for the method shown. In cells and extracts the contact can be indirect. These calls come from enrichment with a bait or labelling near it, and not all partners need be listed.

This test concerns the target PsaB fused with His20-tag after the third residue from the N-terminus (Chlamydomonas reinhardtii) (UniProt P09144). The test is described as follows: affinity purification with mass spectrometry; His20-PsaB PSI purified on TALON and sucrose density gradient; quantitative LC-MS/MS of the PSI fractions, iBAQ values normalized to PsaB.

B1: PsaH (protein, UniProt P13352 31-130)
chain: KYGENSRYFDLQDMENTTGSWDMYGVDEKKRYPDNQAKFFTQATDIISRRESLRALVALSGIAAIVTYGLKGAKDADLPITKGPQTTGENGKGGSVRSRL
B1: the binding entry is “binds weakly”.
